Test results: PMC7522779
Where a chain is given by its changes, count along the chain named. No constants are given. Whether binding was seen depends on the method and setting. For some assays here: In cells and extracts the contact can be indirect. Some entries that bind do so weakly or less than the wild type. For some assays here: Tags and fused reporters may be left off the sequences shown.

T1: Pex14p^TPA-S266A (non-phosphorylatable mutant) (S. cerevisiae) (UniProt P53112)
T1 sequence: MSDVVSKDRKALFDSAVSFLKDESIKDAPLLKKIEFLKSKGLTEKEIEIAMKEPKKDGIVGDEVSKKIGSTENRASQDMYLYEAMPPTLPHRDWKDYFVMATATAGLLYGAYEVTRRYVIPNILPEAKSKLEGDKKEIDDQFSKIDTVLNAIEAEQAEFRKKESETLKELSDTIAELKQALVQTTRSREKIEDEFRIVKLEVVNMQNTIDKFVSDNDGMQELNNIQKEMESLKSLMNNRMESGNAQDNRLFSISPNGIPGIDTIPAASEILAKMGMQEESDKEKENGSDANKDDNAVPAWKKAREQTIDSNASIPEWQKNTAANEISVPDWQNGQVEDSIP

T2: Pex14p^TPA-S266D (phosphomimicking mutant) (S. cerevisiae) (UniProt P53112)
T2 sequence: T1 sequence with A266D

T3: Pex14p-S266A, Gal4p fusion protein for yeast two-hybrid (S. cerevisiae) (UniProt P53112)
T3 sequence: T1 sequence

T4: Pex14p wild-type, Gal4p fusion protein for yeast two-hybrid (S. cerevisiae) (UniProt P53112)
T4 sequence: T1 sequence with A266S

T5: Pex14p-S266D, Gal4p fusion protein for yeast two-hybrid (S. cerevisiae) (UniProt P53112)
T5 sequence: T1 sequence with A266D

B1: Pex7p (protein, UniProt P39108 1-375)
chain: MLRYHMQGFSGYGVQYSPFFDNRLAVAAGSNFGLVGNGKLFILEIDRSGRIVEVNSFLTQDCLFDLAWNESHENQVLVAQGDGTLRLFDTTFKEFPIAIFKEHEREVFSCNWNLVNRQNFLSSSWDGSIKIWSPLRKQSLMTLTPRPLEITKMVDPLNAIILKKKSFTGISKNRNCVYQAQFSPHDQNLVLSCSGNSYASLFDIRLPSGKNQNNFLVHSGLEALTCDFNKYRPYVVATGGVDNAIRIWDIRMLNKNESATIKRTVPGQLHNSSCINEIPNAHGLAIRKVTWSPHHSNILMSASYDMTCRIWRDLSNDGAKETYKTNSTDATKGSIFNFTQHSEFVFGADWSLWGKPGYVASTAWDGNLFVWNGLG
B2: Pex5p, Gal4p fusion protein for yeast two-hybrid (protein, UniProt P35056 1-612)
chain: MDVGSCSVGNNPLAQLHKHTQQNKSLQFNQKNNGRLNESPLQGTNKPGISEAFISNVNAISQENMANMQRFINGEPLIDDKRRMEIGPSSGRLPPFSNVHSLQTSANPTQIKGVNDISHWSQEFQGSNSIQNRNADTGNSEKAWQRGSTTASSRFQYPNTMMNNYAYASMNSLSGSRLQSPAFMNQQQSGRSKEGVNEQEQQPWTDQFEKLEKEVSENLDINDEIEKEENVSEVEQNKPETVEKEEGVYGDQYQSDFQEVWDSIHKDAEEVLPSELVNDDLNLGEDYLKYLGGRVNGNIEYAFQSNNEYFNNPNAYKIGCLLMENGAKLSEAALAFEAAVKEKPDHVDAWLRLGLVQTQNEKELNGISALEECLKLDPKNLEAMKTLAISYINEGYDMSAFTMLDKWAETKYPEIWSRIKQQDDKFQKEKGFTHIDMNAHITKQFLQLANNLSTIDPEIQLCLGLLFYTKDDFDKTIDCFESALRVNPNDELMWNRLGASLANSNRSEEAIQAYHRALQLKPSFVRARYNLAVSSMNIGCFKEAAGYLLSVLSMHEVNTNNKKGDVGSLLNTYNDTVIETLKRVFIAMNRDDLLQEVKPGMDLKRFKGEFSF
B3: Pex17p, Gal4p fusion protein for yeast two-hybrid (protein, UniProt P40155 1-199)
chain: MTSINSFPRNIDWPSNIGIKKIEGTNPTVNAIKGLLYNGGSIYAFLYFVIAMFVEPTLQKQYQQRNDFSLFVLLRLRRIIAQLQKRLVMTPVSSLGFNEQNNFVERSTQTSDDNIIREDNSHWAEMIYQLQNMKQELQYFNRSSGQPSESIDDFVFQIKMVTDQVELTDRSRAFSNKSRNIIQGIREIKGWFVNGQVPR
B4: Pex17p (protein, UniProt P40155 1-199)
chain: B3 chain
B5: Pex5p (protein, UniProt P35056 1-612)
chain: B2 chain

What was measured:
[1] = molecular target: T1, Pex14p^TPA-S266A (non-phosphorylatable mutant) (S. cerevisiae); assay: co-IP; TPA-tagged Pex14p variants as baits captured on IgG-coupled Sepharose from 1% digitonin-solubilised total membranes of cells grown 16 h in oleic acid medium; eluted by TEV protease cleavage; eluates immunoblotted
[2] = molecular target: T2, Pex14p^TPA-S266D (phosphomimicking mutant) (S. cerevisiae); assay: as above
[3] = molecular target: T3, Pex14p-S266A, Gal4p fusion protein for yeast two-hybrid (S. cerevisiae); assay: two-hybrid; ß-galactosidase filter assay with X-Gal; GAL4 BD and AD fusions co-transformed into strain PCY2 pex14Δ
[4] = molecular target: T4, Pex14p wild-type, Gal4p fusion protein for yeast two-hybrid (S. cerevisiae); assay: as above
[5] = molecular target: T5, Pex14p-S266D, Gal4p fusion protein for yeast two-hybrid (S. cerevisiae); assay: as above
[6] = molecular target: T3, Pex14p-S266A, Gal4p fusion protein for yeast two-hybrid (S. cerevisiae); assay: two-hybrid; liquid ß-galactosidase assay with 2-nitrophenyl β-D-galactopyranoside; GAL4 BD and AD fusions in strain PCY2 pex14Δ; triplicate measurements of three independent transformants
[7] = molecular target: T5, Pex14p-S266D, Gal4p fusion protein for yeast two-hybrid (S. cerevisiae); assay: as above

| Binder | binding [1] | binding [2] | other results |
| --- | --- | --- | --- |
| B1 | binds | binds |  |
| B2 |  |  | binding [3]: binds; binding [4]: binds; binding [5]: binds |
| B3 |  |  | binding [6]: binds; binding [7]: binds |
| B4 | binds | binds |  |
| B5 | binds | binds |  |
